According to doi:10.1101/2022.02.15.480428:
These are yes or no findings as the source states them, for the method shown. Binding seen in cells or lysates may run through a third protein. Some results given as binding are weak or reduced against the parent protein; the word gives no strength. Where a sequence is shown, tags or fusion partners need not be part of it.

The chains behind the UniProt entries cited, without tags or fusion partners. Where a name states a change or a piece, a line headed by the entry shows the natural chain unless it says otherwise. Residues count along the entry.
UniProt P48727: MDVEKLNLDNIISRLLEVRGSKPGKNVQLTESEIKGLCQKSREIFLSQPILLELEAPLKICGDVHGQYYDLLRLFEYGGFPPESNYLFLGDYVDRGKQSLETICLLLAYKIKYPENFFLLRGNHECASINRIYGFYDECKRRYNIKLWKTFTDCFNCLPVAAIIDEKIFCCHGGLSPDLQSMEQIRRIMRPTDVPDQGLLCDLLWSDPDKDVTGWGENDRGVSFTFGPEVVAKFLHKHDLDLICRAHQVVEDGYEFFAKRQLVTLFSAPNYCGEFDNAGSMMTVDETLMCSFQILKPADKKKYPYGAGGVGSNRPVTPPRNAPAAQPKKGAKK
3xFLAG:GFP:GSP-2(Δ13): residues 1-320 of P48727
UniProt P62136: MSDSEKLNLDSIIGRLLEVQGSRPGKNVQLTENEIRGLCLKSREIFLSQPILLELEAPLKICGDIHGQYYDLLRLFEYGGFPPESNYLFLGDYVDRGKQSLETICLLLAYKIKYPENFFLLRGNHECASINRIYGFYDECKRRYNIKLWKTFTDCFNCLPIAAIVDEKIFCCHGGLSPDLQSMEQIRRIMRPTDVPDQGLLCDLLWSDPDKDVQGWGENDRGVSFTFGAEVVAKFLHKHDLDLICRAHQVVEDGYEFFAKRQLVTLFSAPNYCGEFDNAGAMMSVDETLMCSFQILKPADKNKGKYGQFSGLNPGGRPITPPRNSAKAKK

T1: H. sapiens iASPP C-terminal domains (amino acids 602-828) with HA-tag and HaloTag (H. sapiens) (UniProt Q8WUF5)
T1 sequence: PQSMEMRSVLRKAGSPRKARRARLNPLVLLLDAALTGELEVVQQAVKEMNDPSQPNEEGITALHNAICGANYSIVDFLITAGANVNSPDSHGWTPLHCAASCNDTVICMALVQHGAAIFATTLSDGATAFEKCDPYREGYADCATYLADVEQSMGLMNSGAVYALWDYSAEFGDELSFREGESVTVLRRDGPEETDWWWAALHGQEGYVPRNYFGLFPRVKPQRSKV


Tests used:
[1] = target: T1, H. sapiens iASPP C-terminal domains (amino acids 602-828) with HA-tag and HaloTag (H. sapiens); experiment: pull-down
[2] = target: 3xFLAG:GFP:GSP-2(Δ13) (C. elegans) (UniProt P48727); experiment: co-IP
[3] = target: GSP-2 endogenously tagged on its N-terminus with 3XFLAG:GFP (C. elegans) (UniProt P48727); experiment: co-IP

| binding [1] | binding [2] | binding [3] | Molecule |
| --- | --- | --- | --- |
| binds |  |  | PP1α (from UniProt P62136 1-330) (enzyme) |
|  | no binding | binds | APE-1 endogenously tagged on its C-terminus with myc-tag:HaloTag (protein, UniProt Q9XVN3 1-769) MVTTSSGGGIGYPANNGVTQVSLIHSSDSVRTVSTAPIYRPTSSMASTMAHKSSTAPFISANQRMSKPPVRVVAQPPPPHPQALSQQYHQQNPMMMYSAPNTRPHVIPTMQVQPTMAAQIKRNNPVNAQFQNPSEMIADYGVKPQSVEMVQRVRAVRRQVADEETELRRLRELEHETAQLQNKNYGRERELNVQGSMLKEAQLELRNASMRAQSLNKHLEEMYRRRQTAAAAALVEQRKMQQHQILLARAANQVSTQEVIRPRASVEPFQVNNTQQQQPSPQMMKSEEFSEKRDLNGQTGSYDAIDGSGDHQKIPTEPSYLAPCKENQQKYSELSKMASTDPHSNHSSPSTSSQKAPTLITFSPPSFEQKINSSTMTRDSPFVERPTSFGDSLDESRLRSGKTDLVSLRSDSLKATKRRSWAASEGTSMSEAEMIHRLLDEQRRGRSHFIPQLPTSQEEPSAITSETYAEEVVNSESKQVATSSDSTNNLELPTEQMVLGSDTTTEEDASSCSTRSDDGQNLEMEVAIERRTVKGILRRPNEKMNKGRIEFDPLALLLDAALEGELDLVRSSASKLTDVSQANDEGITALHNAICAGHYEIVRFLIENDADVNAQDSDGWTPLHCAASCNNLPMVRQLVEGGGCVLASTLSDMETPVEKCEEDEDGYDGCLKYLSAAHNSTGSINTGKVYAAYGYEAAFEDELSFDAGDELTVIEKDKVDKNWWTCEKNNGEKGQVPRTYLALYPSLKYRKKLNFVMFDLPLESNNNVE |
|  |  | binds weakly | APE-1(N583K):HT (protein, UniProt Q9XVN3 1-769) MVTTSSGGGIGYPANNGVTQVSLIHSSDSVRTVSTAPIYRPTSSMASTMAHKSSTAPFISANQRMSKPPVRVVAQPPPPHPQALSQQYHQQNPMMMYSAPNTRPHVIPTMQVQPTMAAQIKRNNPVNAQFQNPSEMIADYGVKPQSVEMVQRVRAVRRQVADEETELRRLRELEHETAQLQNKNYGRERELNVQGSMLKEAQLELRNASMRAQSLNKHLEEMYRRRQTAAAAALVEQRKMQQHQILLARAANQVSTQEVIRPRASVEPFQVNNTQQQQPSPQMMKSEEFSEKRDLNGQTGSYDAIDGSGDHQKIPTEPSYLAPCKENQQKYSELSKMASTDPHSNHSSPSTSSQKAPTLITFSPPSFEQKINSSTMTRDSPFVERPTSFGDSLDESRLRSGKTDLVSLRSDSLKATKRRSWAASEGTSMSEAEMIHRLLDEQRRGRSHFIPQLPTSQEEPSAITSETYAEEVVNSESKQVATSSDSTNNLELPTEQMVLGSDTTTEEDASSCSTRSDDGQNLEMEVAIERRTVKGILRRPNEKMNKGRIEFDPLALLLDAALEGELDLVRSSASKLTDVSQAKDEGITALHNAICAGHYEIVRFLIENDADVNAQDSDGWTPLHCAASCNNLPMVRQLVEGGGCVLASTLSDMETPVEKCEEDEDGYDGCLKYLSAAHNSTGSINTGKVYAAYGYEAAFEDELSFDAGDELTVIEKDKVDKNWWTCEKNNGEKGQVPRTYLALYPSLKYRKKLNFVMFDLPLESNNNVE |
|  |  | binds weakly | APE-1(H591Y):HT (protein, UniProt Q9XVN3 1-769) MVTTSSGGGIGYPANNGVTQVSLIHSSDSVRTVSTAPIYRPTSSMASTMAHKSSTAPFISANQRMSKPPVRVVAQPPPPHPQALSQQYHQQNPMMMYSAPNTRPHVIPTMQVQPTMAAQIKRNNPVNAQFQNPSEMIADYGVKPQSVEMVQRVRAVRRQVADEETELRRLRELEHETAQLQNKNYGRERELNVQGSMLKEAQLELRNASMRAQSLNKHLEEMYRRRQTAAAAALVEQRKMQQHQILLARAANQVSTQEVIRPRASVEPFQVNNTQQQQPSPQMMKSEEFSEKRDLNGQTGSYDAIDGSGDHQKIPTEPSYLAPCKENQQKYSELSKMASTDPHSNHSSPSTSSQKAPTLITFSPPSFEQKINSSTMTRDSPFVERPTSFGDSLDESRLRSGKTDLVSLRSDSLKATKRRSWAASEGTSMSEAEMIHRLLDEQRRGRSHFIPQLPTSQEEPSAITSETYAEEVVNSESKQVATSSDSTNNLELPTEQMVLGSDTTTEEDASSCSTRSDDGQNLEMEVAIERRTVKGILRRPNEKMNKGRIEFDPLALLLDAALEGELDLVRSSASKLTDVSQANDEGITALYNAICAGHYEIVRFLIENDADVNAQDSDGWTPLHCAASCNNLPMVRQLVEGGGCVLASTLSDMETPVEKCEEDEDGYDGCLKYLSAAHNSTGSINTGKVYAAYGYEAAFEDELSFDAGDELTVIEKDKVDKNWWTCEKNNGEKGQVPRTYLALYPSLKYRKKLNFVMFDLPLESNNNVE |
